Experimental findings from PubChem BioAssay AID2685 (National Center for Advancing Translational Sciences (NCATS), 2010) are described below.

The list shows a part of the results. These are further read-outs of the screen, such as a control signal, another cell line or another target. No call is given for them. Compounds called inactive in the main read-out are mostly missing here. The note in brackets gives the kind of curve behind each potency; many fits are weak.

Usually AC50 stands for the midpoint of the concentration-response curve, whichever way the signal moves. Lower therefore signals activity at low concentration.

This assay is described as follows: qHTS Assay for Lipid Storage Modulators in Drosophila S3 Cells.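 For cell number change: cells counted by Cell Tracker Red CMTPX staining in the red channel.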 Conditions: BODIPY lipid droplet fluorescence, 18-24 h; for cell number change: measured here: cell count max response, cells fed with added oleic acid. The essentials: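 Drosophila S3 cells loaded with oleic acid (400 uM, as added) and compounds at several concentrations; lipid droplets imaged by 488-nm laser-scanning cytometry, 500–530 nm intensity and object ratio to cell channel. Percent activity normalized to 20 uM Triacsin C.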

The mark [1] stands for this setting: measured here: cell number channel AC50, cells fed with added oleic acid.
[2] abbreviates: measured here: lipid fluorescence (Fed channel) AC50, cells fed with added oleic acid.

In the case of `CC(=O)Nc1ccc(S(=O)(=O)c2ccc(N)cc2)cc1`, the cell number change was -30.9%. Under setting [1], the AC50 is 1.64 µM [falling, full curve, poor fit]. Also, the AC50 under setting [2] is 4.61 µM [falling, full curve, poor fit].
As for `CCc1ccc(NC(=O)C2CCCN2c2nn3c(=O)cc(C)nc3s2)cc1` (stereo not drawn), the cell number change is 6.05%. For the same molecule, under setting [2], the AC50 is 6.51 µM [falling, single point].
`COCCNc1nc(N)c([N+](=O)[O-])c(N2CCCCCC2)n1`: the cell number change is -40.5%.
For `OCCSc1nncn1/N=C/c1c[nH]c2ccccc12`, the cell number change turned out to be 0.65%. Also, under setting [2], the AC50 is 4.11 µM [rising, single point].
Regarding `CCOc1ccccc1NC(=O)c1cc(S(=O)(=O)N2CCC3(CC2)OCCO3)ccc1F`, the cell number change came out at 4.47%. Also, the AC50 under setting [1] is 0.082 µM [falling, full curve, poor fit].
With `Cc1cc(C)cc(Oc2c(C(F)(F)F)oc3cc(OCC(=O)O)ccc3c2=O)c1`, the cell number change was 1.14%. The concentration at half-maximal activity (AC50) under setting [2] is 0.731 µM [falling, single point].
Consider `Cc1ccc(S(=O)(=O)Nc2nonc2C)cc1`, for which the cell number change is -6.13%. The AC50 under setting [2] is 0.103 µM [falling, full curve, poor fit].
With `CC1Cc2ccccc2N1C(=O)COC(=O)c1ccc(N(C)C)cc1` (stereo not drawn), the cell number change turned out to be 3.76%.
On to `CCOc1ccccc1/C=C(\C#N)C(=O)Nc1cccc(C(=O)O)c1`, for which the cell number change is -16%. The AC50 under setting [2] is 32.6 µM [falling, partial curve, poor fit].
As for `Cc1onc(-c2c(F)cccc2Cl)c1C(=O)NCc1ccccn1`, the cell number change is -0.485%. Moreover, the AC50 under setting [2] was 0.103 µM [falling, full curve, poor fit].
Regarding `O=C(Nc1cccc(S(=O)(=O)N2CCCCCC2)c1)C1CCN(C(=O)c2ccc(F)cc2)CC1`, the cell number change was -32.4%. In addition, the AC50 under setting [2] is 25.9 µM [falling, single point].
In the case of `CC(C)Cn1c(O)c(N=NC(=O)c2cccc(S(=O)(=O)N3CCCCC3)c2)c2ccccc21`, the cell number change is 15.9%. Moreover, the AC50 under setting [2] was 32.6 µM [falling, single point].
For `O=C1N=C(N2CCOCC2)S/C1=C1\C(=O)N(Cc2ccccc2)c2ccccc21`, the cell number change turned out to be 0.455%.
`Cn1c(=O)c2c(SCc3cccnc3)nc(CC(C)(C)C)nc2n(C)c1=O`: the AC50 under setting [2] was 2.31 µM [rising, partial curve, poor fit].
Regarding `COc1cccc(-c2nc(CS(=O)CC(=O)NCc3ccccc3Cl)c(C)o2)c1` (stereo not drawn), the cell number change stood at 25.2%. Further, the half-maximal activity concentration (AC50) under setting [2] was 29.1 µM [rising, single point].
Regarding `O=C(COC(=O)c1n[nH]c2ccccc12)Nc1ccc(Cl)cc1[N+](=O)[O-]`, the cell number change worked out at 8.92%.
`Fc1ccc(-n2cc(CNCCc3ccccn3)c(-c3ccccc3Cl)n2)cc1`: the cell number change was determined as 18.5%. The AC50 under setting [1] is 0.00517 µM [rising, full curve, poor fit].
For the molecule `COc1ccc(-c2cc(C(=O)NCCN3CCOCC3)c3ccccc3n2)cc1`, the cell number change was 20.5%.
On to `COC(=O)c1cc(OC)c(OCc2cc(C(=O)OC)oc2C)c(OC)c1`, for which the cell number change is -99%. The AC50 under setting [1] is 6.51 µM [rising, single point]. In addition, under setting [2], the AC50 is 0.58 µM [falling, single point].
As for `Cc1cccc(OCC(O)CN2C(C)(C)CC(O)CC2(C)C)c1` (stereo not drawn), the cell number change is -176%. Under setting [1], the AC50 was 16.4 µM [falling, partial curve]. Also, under setting [2], the AC50 was 20.6 µM [falling, partial curve].
`CCCCOc1ccc(C(=O)NNC(=O)C2C3CCC(C3)C2C(=O)O)cc1` (stereo not drawn): the cell number change is -24%. For the same molecule, the AC50 under setting [2] is 18.4 µM [falling, single point].
For `CCC(=O)Nc1ccc(N2CCN(C(=O)c3ccco3)CC2)c(Cl)c1`, the cell number change was -10.2%.
Take `COc1ccc(C2C(C(=O)/C=C/c3ccco3)=C(O)C(=O)N2CCN2CCOCC2)cc1` (stereo not drawn): the cell number change came to 10.9%. Further, under setting [1], the AC50 was 0.58 µM [falling, full curve]. Moreover, under setting [2], the AC50 was 6.51 µM [falling, partial curve, poor fit].
In the case of `O=C(CN1CCC(Cc2ccccc2)CC1)Nc1ccc2c(c1)OCCO2`, the cell number change turned out to be 8.33%. In addition, the AC50 under setting [2] was 0.164 µM [falling, full curve].
For `Cc1cccn2c(CNCC(C)Oc3cccnc3)c(C(=O)N3CCOCC3)nc12` (stereo not drawn), the cell number change came to 21.3%. In addition, the half-maximal activity concentration (AC50) under setting [2] is 0.0184 µM [rising, full curve, poor fit].
With `CCN=C1SC(CC(=O)NCC)C(=O)N1CC` (stereo not drawn), the cell number change is -68.7%. Moreover, the AC50 under setting [1] was 25.9 µM [falling, partial curve, poor fit]. In addition, under setting [2], the AC50 is 23.1 µM [falling, partial curve].
For the molecule `CCCCCCCc1c(C)nc(N2CCOCC2)[nH]c1=O`, the cell number change was 16.8%. The AC50 under setting [2] is 0.0651 µM [falling, full curve, poor fit].
Turning to `CC1CCCN(c2ccc(C(=O)Nc3cccnc3)cc2[N+](=O)[O-])C1` (stereo not drawn), the cell number change was found to be 6.34%. Moreover, under setting [2], the AC50 was 0.231 µM [rising, full curve, poor fit].
On to `O=C(CSC1=NCCN1)Nc1ccccc1[N+](=O)[O-]`, for which the cell number change is -11.8%.
In the case of `O=C1CNC(=O)/C1=C/c1ccc(O)cc1`, the cell number change was found to be 37.5%. The AC50 under setting [1] was 29.1 µM [rising, single point]. Besides, the AC50 under setting [2] is 29.1 µM [rising, single point].
In the case of `COCCCNC(=S)N1CCN(c2nc(-c3cccc(OC)c3)cs2)CC1`, the cell number change is -33.3%. Besides, under setting [1], the AC50 is 7.31 µM [falling, partial curve, poor fit]. Further, the AC50 under setting [2] is 13 µM [falling, partial curve].
Regarding `Cn1nc(C(=O)NC2CCCN(Cc3ccccc3F)C2)c2ccccc2c1=O` (stereo not drawn), under setting [1], the AC50 was 6.51 µM [rising, single point].
In the case of `CCOc1c(CNCCCSc2nc(C)cc(C)n2)cccc1OC`, the cell number change was -11%. The AC50 under setting [2] was 23.1 µM [falling, partial curve, poor fit].
As for `COc1cc2c(cc1OC)CN(S(=O)(=O)/C=C/c1ccccc1)CC2`, under setting [1], the AC50 was 0.0461 µM [rising, partial curve, poor fit].
`COc1ccc(OC)c2sc(Cl)nc12`: the cell number change is 30.5%. Moreover, the AC50 under setting [1] was 16.4 µM [rising, single point]. Further, the AC50 under setting [2] is 16.4 µM [rising, partial curve].
On to `CCCCNc1ccc(C(=O)OCCOCCOCCOCCOCCOCCOCCOCCOCCOC)cc1`, for which the cell number change is 16.7%. For the same molecule, the AC50 under setting [2] is 29.1 µM [rising, single point].
Consider `Cc1cc(C)c(C)c(S(=O)(=O)NCc2ccc(C(=O)N3CCCC3)cc2)c1C`, for which the cell number change is -27.1%. For the same molecule, the AC50 under setting [2] was 29.1 µM [falling, single point].
In the case of `CC(C)c1ccc(NC2CCCN(C(=O)c3cnn(C(C)C)c3)C2)cc1` (stereo not drawn), the cell number change is 20.5%.
